Measurements from PubChem BioAssay AID662 (National Center for Advancing Translational Sciences (NCATS), 2007).
Some of the results follow. Shown are side measurements of this screen, not its main read-out; they come without a call. Most of these compounds were active or inconclusive in the main read-out, so they are no random draw. Potencies come from curve fits of mixed quality, noted in brackets.

Assay: Cell signaling CRE-BLA (Fsk stim)
Details: CHO CRE-bla reporter (cAMP response element driving beta-lactamase), forskolin EC10, beta-lactamase ratio; measured here: 460 nm blue channel
From the text: NIH Molecular Libraries Screening Centers Network [MLSCN]
NIH Chemical Genomics Center [NCGC]
Assay Provider: Marshall W. Nirenberg, U.S. National heart lung & blood institute
Memories persist for different lengths of time, from seconds or minutes to a lifetime. There are two kinds of memory: short-term memory (STM) and long-term memory (LTM). STM lasts for minutes to hours, which maybe mediated by modifications of molecules involved in synaptic functions. LTM lasts for days or longer, and may be due to the formation of new synapses or restructuring of existing synapses. LTM, but not STM, requires gene transcription and synthesis of proteins. CREB (cyclic-AMP Responsive Element Binding Protein) is one of the candidates plays an important role for enhancement of some types of LTM. CREB, a family of transcription factors, regulates the transcription of genes containing cAMP Responsive Elements (CRE). CRE is a nucleotide sequence often found in the promoter regions of genes that are binding sites for CREB.
Using a beta-lactamase reporter-gene under control of cAMP responsive element, a cell-based assay [CellSensor(TM) CRE-bla CHO developed by Invitrogen Corp.] was used to measure forskolin-induced signaling. Library compounds were measured for their ability to modulate positively or negatively the action of EC10 NKH 477, a water soluble forskolin, on reporter gene activity. Compounds were screened in a titration series in 1536-well format. Positive and negative modulators were identified based on the AC50 values derived from the screening data.
NCGC Assay Protocol Summary
2000 cells/5uL in Opti-MEM medium containing 0.5% dialyzed FBS, 0.1 mM NEAA, 1 mM sodium pyruvate and 10 mM HEPES was dispensed into 1536-well plates and cells were cultured at 37 degrees Celsius overnight. […] And then the plates were incubated at 37 degrees Celsius for 3 hours. 1 uL of CCF4-dye mixture was added to each well. After incubated at room temperature for 2 hours the plates were measured on an EnVision plate reader at Excitation 405nm, Emission1=460nm and Emission 2=530nm. The %Activity was determined from the ratio of 460nm/530nm.
Keywords: NIH Roadmap, MLSCN, MLSMR, qHTS, NCGC, CRE, beta-lactamase reporter-gene assay.

SMILES	AC50
COc1ccc(Cn2c(=O)[nH]c3cc(C(=O)NCc4ccc5c(c4)OCO5)ccc3c2=O)cc1	12.6 µM [falling, single point]
CCCC(=O)N1c2ccc(-c3csc(N)n3)cc2CC1C (stereo not drawn)	12.6 µM [rising, single point]
COc1ccc(Cc2nnc(-c3cccc(C)c3)o2)cc1OC	3.16 µM [rising, full curve]
Cc1c(/N=C/c2ccco2)n(Cc2ccccc2)c2ccccc12	5.01 µM [falling, single point]
CCOC(=O)c1sc(NC(=O)CSc2nnc(C)s2)c(C(=O)OCC)c1C	1.58 µM [rising, full curve, poor fit]
O=C(CN1C(=O)c2ccccc2S1(=O)=O)NCc1cccnc1	0.00316 µM [rising, full curve, poor fit]
O=C(c1ccc(N2CN(C(=O)c3ccco3)c3nc4ccccc4nc32)cc1)N1CCOCC1	12.6 µM [rising, single point]
O=C(O)CCc1ccc(-c2cccs2)n1NC(=O)c1ccc(Cl)cc1	0.00316 µM [falling, full curve, poor fit]
Cc1sc2nc3ccc(N4CCCCC4)nn3c(=O)c2c1C	10 µM [rising, single point]
OCCN1CCN(c2ncnc3nc[nH]c23)CC1	10 µM [rising, partial curve]
Cc1ccc(-c2nc(C3CCCN(S(=O)(=O)c4ccc(C)cc4)C3)no2)cc1 (stereo not drawn)	15.8 µM [falling, single point]
CCC(C)NC(=O)c1cnn2c(C)c3c(nc12)CCCC3 (stereo not drawn)	7.94 µM [rising, partial curve]
COc1ccc(CC(=O)NC(CC(=O)O)c2ccc(OC)cc2)cc1 (stereo not drawn)	5.01 µM [falling, partial curve, poor fit]
CCN(CC)c1nc(N)c2c(N)n(-c3ccccc3C)c(=S)c(C#N)c2c1C#N	20 µM [falling, partial curve]
Cn1c2ccccc2c2c(C(=O)NCCCN3CCCC3=O)cn(C3CCCCC3)c(=O)c21	12.6 µM [rising, partial curve]
O=c1c(-c2ccc(Cl)cc2)nc2cnc(N3CCOCC3)nc2n1CCc1ccccc1	12.6 µM [rising, partial curve]
O=C(Nc1c(-c2ccccc2)nc2c(Br)cc(Br)cn12)c1ccco1	0.501 µM [falling, full curve, poor fit]
O=C(Cn1[nH]c(=O)c2ccccc2c1=O)Nc1ccc2c(c1)CCC2	10 µM [rising, partial curve]
COc1cc(OC)c(Nc2cc(C)nc3nc(C)nn23)cc1Cl	10 µM [rising, partial curve]
COc1ccc(CNC(=O)c2cccc3c2C(=O)N(Cc2cccnc2)C3)cc1	3.98 µM [rising, full curve]
Cc1cc(NC(=O)c2ccccc2Oc2ccccc2)no1	12.6 µM [rising, single point]
O=C1c2ccccc2C(Nc2cccc(C(F)(F)F)c2)N1Cc1ccco1 (stereo not drawn)	25.1 µM [falling, single point]
c1ccc2c(c1)-c1cccc3c1c-2cc1ccccc13	25.1 µM [rising, partial curve]

Reprinted from the entries so far, three compounds:
SMILES	AC50
O=C(CN1C(=O)c2ccccc2S1(=O)=O)NCc1cccnc1	0.00316 µM [rising, full curve, poor fit]
O=C(c1ccc(N2CN(C(=O)c3ccco3)c3nc4ccccc4nc32)cc1)N1CCOCC1	12.6 µM [rising, single point]
O=C(O)CCc1ccc(-c2cccs2)n1NC(=O)c1ccc(Cl)cc1	0.00316 µM [falling, full curve, poor fit]

Remaining list, next part.

SMILES	AC50
Cc1ccc(C)c(CSc2nnc(-c3cccnc3)n2N)c1	10 µM [falling, partial curve]
CCCn1c(SCC(=O)N2CCCc3ccccc32)nnc1-c1ccco1	12.6 µM [rising, single point]
Cc1nn(CCCC(=O)N2CCc3ccccc3C2)c(=O)c2cc3sccc3n12	10 µM [rising, single point]
O=C(O)CNC1=NCCCCC1	5.01 µM [falling, single point]
COc1ccc2[nH]c(=O)c(CN(Cc3cccs3)Cc3nnnn3C(C)(C)C)cc2c1	12.6 µM [rising, single point]
CCOC(=O)C1=CN(C)C=C(C(=O)OCC)C1c1ccsc1	10 µM [rising, partial curve]
CSc1nc2c(c(=O)n1Cc1ccccc1)SC(C)C2 (stereo not drawn)	12.6 µM [rising, partial curve]
Cc1nnc(NC2=NCCCCC2)o1	1 µM [falling, partial curve, poor fit]
Clc1cccc(C=NC=Nc2cccc(Cl)c2)c1	0.0158 µM [rising, full curve, poor fit]
COc1cc(S(=O)(=O)N2CCN(Cc3ccc4c(c3)OCO4)CC2)c(C)cc1C	15.8 µM [falling, partial curve, poor fit]
Cc1ccc(SCC(=O)N2CCCC2)cc1	0.00316 µM [falling, full curve, poor fit]
Cc1ccc(S(=O)(=O)C(C#N)c2nc3ccccc3nc2N2CCCC2)cc1 (stereo not drawn)	3.16 µM [rising, full curve]
COc1ncc2nc(CCc3ccccc3)c(=O)n(-c3ccccc3)c2n1	12.6 µM [rising, partial curve]
CCN(CC)CCCN1C(=O)C(O)=C(C(=O)c2ccco2)C1c1cc(OC)ccc1OC (stereo not drawn)	0.316 µM [falling, partial curve]
Cc1nn(-c2ccc(F)cc2)c2sc(C(=O)OC3CCOC3=O)cc12 (stereo not drawn)	0.1 µM [rising, single point]
COC(=O)CSC1=C(C#N)C(c2ccccc2OC)C(C(=O)OC)C(=O)N1 (stereo not drawn)	1 µM [falling, partial curve]
CCOC(=O)c1sc(NC(=O)CSc2nnc(C(C)C)n2CC)nc1C	15.8 µM [rising, single point]
Cc1coc2c(C)c3oc(=O)c4c(c3cc12)CCCC4	12.6 µM [rising, partial curve]
CCOc1ccccc1Nc1ncnc2c1cnn2-c1ccccc1	10 µM [rising, partial curve]
CCc1cccc2nc3c(c([Si](C)(C)C)c12)Cn1c-3cccc1=O	10 µM [rising, partial curve]
COCCCn1c(-c2ccsc2)nc2c1c(=O)[nH]c(=O)n2Cc1ccccc1	12.6 µM [rising, single point]
CC(C)Sc1ncnc2c1oc1ccccc12	12.6 µM [rising, partial curve]
CCOC(=O)c1c(NC(=O)c2cccs2)sc(C)c1CC	7.94 µM [rising, partial curve]

SMILES	AC50
COc1cccc(C(c2nnnn2C(C)(C)C)N2CCN(C3CCCCC3)CC2)c1OC (stereo not drawn)	0.501 µM [falling, full curve]
COc1ccccc1-c1c(C)nn2c(N3CCCCCC3)cc(C)nc12	15.8 µM [falling, single point]
Cc1cccc(NC(=O)c2cc(-c3ccco3)nc3ccccc23)n1	15.8 µM [rising, single point]
COc1ccc(C)cc1-n1nnnc1SCc1cn2ccsc2n1	15.8 µM [rising, single point]
Nc1c(C(=O)NC2CC2)c2nc3ccccc3nc2n1-c1ccc2c(c1)OCO2	7.94 µM [rising, partial curve]
CCCc1c(-c2ccc(O)cc2)nn(-c2ccc(O)cc2)c1-c1ccc(O)cc1	15.8 µM [falling, partial curve]
Cc1c(N=Cc2ccncc2)c(=O)n(-c2ccccc2)n1C	0.00398 µM [rising, full curve, poor fit]
COc1ccc2nc3c(c([Si](C)(C)C(C)(C)C)c2c1)Cn1c-3cccc1=O	12.6 µM [rising, single point]
COC(=O)c1cc(OC)c(OC)cc1NC(=O)CN1CCOCC1	10 µM [rising, partial curve]
CC12CN3CC(C)(CN(C1)C3c1ccc3ccccc3c1O)C2=O (stereo not drawn)	15.8 µM [falling, single point]
Oc1c(Cl)cc(Cl)c(Cl)c1Cc1c(O)c(Cl)cc(Cl)c1Cl	0.251 µM [falling, full curve]
CC(C)[C@@H]1N[C@]2(C(=O)Nc3ccccc32)[C@@H]2C(=O)N(c3cccc(C(F)(F)F)c3)C(=O)[C@@H]21	0.00794 µM [falling, full curve, poor fit]
Cc1ccc(OC(=O)NC2CCS(=O)(=O)C2)cc1C (stereo not drawn)	3.16 µM [falling, full curve, poor fit]
COc1ccc(-n2c(SCC(=O)c3c(N)n(C)c(=O)n(C)c3=O)nc3ccccc32)cc1	10 µM [rising, partial curve]
CCCCC(=O)OCCNC(=O)c1cc2ccccc2oc1=O	0.00316 µM [falling, full curve, poor fit]
COc1cccc(N2C(=O)C3C(C2=O)C2C=CC3C23CC3)c1 (stereo not drawn)	1 µM [falling, partial curve]
O=C(COc1ncnc2ccccc12)N1CCOCC1	5.01 µM [falling, single point]
COc1ccc(-c2noc(CCC(=O)Nc3cc(Cl)c(OC)cc3OC)n2)cc1	1 µM [falling, partial curve, poor fit]
COc1ccc(CCNC(=O)C2=COCCO2)cc1	0.126 µM [falling, partial curve, poor fit]
COc1ccc(-c2cc(C(F)F)n3ncc(C(=O)N4CCSCC4)c3n2)cc1	12.6 µM [rising, partial curve]
CS(=O)(=O)Nc1cccc(-c2ccc3ncnc(NC4CC4)c3c2)c1	7.94 µM [rising, partial curve]
COc1ccc(NC(=O)c2cnc3ccccn3c2=O)cc1OC	7.94 µM [rising, partial curve]

Two compounds picked at random from those above:
SMILES	AC50
Cc1ccc(OC(=O)NC2CCS(=O)(=O)C2)cc1C (stereo not drawn)	3.16 µM [falling, full curve, poor fit]
COc1ccc2nc3c(c([Si](C)(C)C(C)(C)C)c2c1)Cn1c-3cccc1=O	12.6 µM [rising, single point]
